Reference: publication PMC5003356
For at least one entry, the source does not settle the construct or the ends of the probe. Where cells or extracts were used, other partners may take part. For some assays here: A weaker result is weaker than the reference pair of the same experiment. For some assays here: Tags and fusion partners may be left off the protein sequences shown. For some assays here: Whether high values mean tight binding is not given here for every scale.

Protein sequences, listed by entry. Tags and fused reporters are not part of them. Lines headed by an entry give the natural chain unless they say otherwise; changes in a name come on top. Residues count along the entry.
UniProt P09405, 300-652: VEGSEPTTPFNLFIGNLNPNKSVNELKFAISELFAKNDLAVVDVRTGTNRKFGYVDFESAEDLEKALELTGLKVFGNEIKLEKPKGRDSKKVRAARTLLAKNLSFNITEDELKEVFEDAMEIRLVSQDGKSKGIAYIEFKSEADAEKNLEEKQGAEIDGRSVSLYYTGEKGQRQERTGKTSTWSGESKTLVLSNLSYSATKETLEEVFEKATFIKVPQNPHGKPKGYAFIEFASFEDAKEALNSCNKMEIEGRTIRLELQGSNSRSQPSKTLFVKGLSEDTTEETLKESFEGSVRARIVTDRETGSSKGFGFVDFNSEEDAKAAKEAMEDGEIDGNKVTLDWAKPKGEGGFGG
UniProt Q15233: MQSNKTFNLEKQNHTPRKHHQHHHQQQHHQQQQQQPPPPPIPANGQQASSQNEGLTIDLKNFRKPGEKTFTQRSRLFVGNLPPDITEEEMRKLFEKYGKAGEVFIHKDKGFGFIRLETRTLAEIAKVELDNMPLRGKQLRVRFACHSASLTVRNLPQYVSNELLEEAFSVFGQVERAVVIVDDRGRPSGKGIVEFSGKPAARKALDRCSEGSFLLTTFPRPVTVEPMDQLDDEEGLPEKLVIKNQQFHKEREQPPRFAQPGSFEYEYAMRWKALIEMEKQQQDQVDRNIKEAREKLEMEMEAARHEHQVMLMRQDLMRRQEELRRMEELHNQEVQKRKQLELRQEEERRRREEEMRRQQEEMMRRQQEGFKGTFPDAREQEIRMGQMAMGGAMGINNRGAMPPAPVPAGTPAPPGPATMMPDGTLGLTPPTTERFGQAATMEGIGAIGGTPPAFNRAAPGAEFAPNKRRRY
UniProt P05627, whole entry: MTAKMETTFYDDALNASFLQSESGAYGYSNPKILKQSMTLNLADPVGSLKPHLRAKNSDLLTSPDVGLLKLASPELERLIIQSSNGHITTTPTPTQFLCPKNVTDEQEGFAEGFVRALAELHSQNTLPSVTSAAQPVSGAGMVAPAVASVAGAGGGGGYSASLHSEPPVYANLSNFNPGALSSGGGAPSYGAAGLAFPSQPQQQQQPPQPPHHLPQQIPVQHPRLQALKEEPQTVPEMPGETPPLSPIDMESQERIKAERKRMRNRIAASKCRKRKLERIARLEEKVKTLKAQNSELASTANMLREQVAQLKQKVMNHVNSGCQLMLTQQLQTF

Experiments:
Staufen1 NLuc fusion = biological target: T1, Staufen1 NLuc fusion (UniProt O95793); assay: BRET; details: BRET: 1X binding buffer (0.1 M potassium acetate, 20 mM Tris pH 7.5, 1 mM EDTA, 0.01% NP-40), room temperature, 15 min, label: 3' Alexa Fluor 594 on strand 1
T1 sequence (looked up, limits assumed): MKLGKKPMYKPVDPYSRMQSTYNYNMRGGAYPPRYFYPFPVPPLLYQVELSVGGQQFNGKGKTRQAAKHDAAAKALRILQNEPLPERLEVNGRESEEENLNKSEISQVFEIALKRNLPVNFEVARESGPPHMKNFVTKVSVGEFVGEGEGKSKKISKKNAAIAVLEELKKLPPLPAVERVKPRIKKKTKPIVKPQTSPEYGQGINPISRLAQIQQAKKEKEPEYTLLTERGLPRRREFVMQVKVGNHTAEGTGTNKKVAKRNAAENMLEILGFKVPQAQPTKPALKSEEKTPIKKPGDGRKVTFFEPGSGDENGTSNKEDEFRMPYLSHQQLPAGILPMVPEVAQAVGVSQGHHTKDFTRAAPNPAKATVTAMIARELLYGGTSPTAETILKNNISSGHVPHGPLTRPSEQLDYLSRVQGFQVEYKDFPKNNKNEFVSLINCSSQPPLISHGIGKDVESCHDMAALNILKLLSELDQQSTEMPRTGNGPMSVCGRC

RNase H1 NLuc fusion = biological target: T2, RNase H1 NLuc fusion (UniProt O60930); assay: competition BRET; details: 3-10-3 cEt gap-mer; BRET: 1X binding buffer (0.1 M potassium acetate, 20 mM Tris pH 7.5, 1 mM EDTA, 0.01% NP-40), room temperature, 15 min; protein in a lysate after overexpression; protein details: NLuc (N or C); synthetic backbone
T2 sequence (looked up, limits assumed): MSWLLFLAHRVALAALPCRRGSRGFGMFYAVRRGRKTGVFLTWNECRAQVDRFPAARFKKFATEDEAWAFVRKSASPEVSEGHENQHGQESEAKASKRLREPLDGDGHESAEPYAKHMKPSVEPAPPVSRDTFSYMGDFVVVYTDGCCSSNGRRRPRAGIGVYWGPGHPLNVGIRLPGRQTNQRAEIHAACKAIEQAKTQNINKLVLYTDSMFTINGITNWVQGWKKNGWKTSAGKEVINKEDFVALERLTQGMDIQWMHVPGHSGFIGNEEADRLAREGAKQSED

[1] = biological target: NCL (RBD 1-4) NLuc fusion (UniProt P09405); assay: competition BRET; details: 3-10-3 cEt gap-mer; BRET: 1X binding buffer (0.1 M potassium acetate, 20 mM Tris pH 7.5, 1 mM EDTA, 0.01% NP-40), room temperature, 15 min; protein in a lysate after overexpression; protein details: NLuc (N or C); synthetic backbone
[2] = biological target: P54nrb NLuc fusion (Homo sapiens) (UniProt Q15233); assay: competition BRET; details: 3-10-3 cEt gap-mer; BRET: 1X binding buffer (0.1 M potassium acetate, 20 mM Tris pH 7.5, 1 mM EDTA, 0.01% NP-40), room temperature, 15 min; protein in a lysate after overexpression; protein details: NLuc (N or C); synthetic backbone
LRPPRC-NLuc = LRPPRC-NLuc (UniProt P42704); assay: competition BRET; details: 3-10-3 cEt gap-mer; BRET: 1X binding buffer (0.1 M potassium acetate, 20 mM Tris pH 7.5, 1 mM EDTA, 0.01% NP-40), room temperature, 15 min; protein in a lysate after overexpression; protein details: C-terminal NLuc; synthetic backbone
NLuc-cJun = NLuc-cJun (UniProt P05627); assay: BRET; details: digitonin-permeabilized HeLa, 'virtually no binding'; BRET: 1X binding buffer (0.1 M potassium acetate, 20 mM Tris pH 7.5, 1 mM EDTA, 0.01% NP-40), room temperature, 15 min; protein in a lysate after overexpression; protein details: N-terminal NLuc; label: 3' Alexa Fluor 594; single-stranded DNA

## CUGCUAGCCUCUGGAUUUGA / UAUGGGGUCAAAUCCAGAGGCUAGCAGAAGGGAGUAACUA [STAU1 RNA/RNA]
Staufen1 NLuc fusion; protein in a lysate after …
  Kd: 3 nM

## CCAGCGGGTGGACTGT [660923]
RNase H1 NLuc fusion
  Kd: 7.11 nM
[1]
  Kd: 7.37 nM
[2]
  Kd: 1.22 nM
LRPPRC-NLuc
  Kd: 0.27 nM

## CGCTTGATGAGTCAGCCGGAA [AP1 ss]
NLuc-cJun
  binding signal (fold lower affinity than ds AP1): 100

## CUGCUAGCCUCUGGAUUUGA / TATGGGGTCAAATCCAGAGGCTAGCAGAAGGGAGTAACTA [STAU1 RNA/DNA]
Staufen1 NLuc fusion; range over ssRNA, ssDNA and RNA/DNA, protein in a lysate after overexpression, DNA:RNA hybrid
  binding result: binds more weakly

## TCCACAGAGCGGACTG [660965]
RNase H1 NLuc fusion
  Kd: 189 nM
[1]
  Kd: 28.2 nM
[2]
  Kd: 191 nM
LRPPRC-NLuc
  Kd: 1.2 nM
